No constants are given. Whether binding was seen depends on the method and setting. Some entries that bind do so weakly or less than the wild type.
Experiments:
CD3 on Jurkat cells = target: T1, CD3 on Jurkat cells (human, UniProt P07766;P09693;P04234); assay: flow cytometry on Jurkat cells, FITC-labelled secondary antibody, MFI (Example 3)
T1 construct: on the surface of Jurkat cells

By UniProt entry, the sequences of proteins in these tests, tags left out. Where a name states a change or a piece, a line headed by the entry shows the natural chain unless it says otherwise. Residues count along the entry.
UniProt P07766: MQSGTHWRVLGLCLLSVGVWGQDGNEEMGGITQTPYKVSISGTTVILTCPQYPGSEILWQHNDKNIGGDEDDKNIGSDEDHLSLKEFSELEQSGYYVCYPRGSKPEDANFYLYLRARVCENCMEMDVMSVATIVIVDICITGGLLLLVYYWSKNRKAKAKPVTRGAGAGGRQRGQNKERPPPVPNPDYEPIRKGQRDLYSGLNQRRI
UniProt P09693: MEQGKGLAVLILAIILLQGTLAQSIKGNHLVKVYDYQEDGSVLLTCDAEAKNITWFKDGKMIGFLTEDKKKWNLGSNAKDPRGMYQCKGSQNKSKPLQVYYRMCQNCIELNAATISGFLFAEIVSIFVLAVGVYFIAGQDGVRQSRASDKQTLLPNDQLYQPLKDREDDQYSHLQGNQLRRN
UniProt P04234: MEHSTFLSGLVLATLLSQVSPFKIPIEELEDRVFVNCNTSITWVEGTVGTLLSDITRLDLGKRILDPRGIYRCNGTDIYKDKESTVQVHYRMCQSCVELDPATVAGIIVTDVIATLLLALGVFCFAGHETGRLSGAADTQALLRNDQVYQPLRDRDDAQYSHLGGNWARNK
UniProt P02769, residues 25-607: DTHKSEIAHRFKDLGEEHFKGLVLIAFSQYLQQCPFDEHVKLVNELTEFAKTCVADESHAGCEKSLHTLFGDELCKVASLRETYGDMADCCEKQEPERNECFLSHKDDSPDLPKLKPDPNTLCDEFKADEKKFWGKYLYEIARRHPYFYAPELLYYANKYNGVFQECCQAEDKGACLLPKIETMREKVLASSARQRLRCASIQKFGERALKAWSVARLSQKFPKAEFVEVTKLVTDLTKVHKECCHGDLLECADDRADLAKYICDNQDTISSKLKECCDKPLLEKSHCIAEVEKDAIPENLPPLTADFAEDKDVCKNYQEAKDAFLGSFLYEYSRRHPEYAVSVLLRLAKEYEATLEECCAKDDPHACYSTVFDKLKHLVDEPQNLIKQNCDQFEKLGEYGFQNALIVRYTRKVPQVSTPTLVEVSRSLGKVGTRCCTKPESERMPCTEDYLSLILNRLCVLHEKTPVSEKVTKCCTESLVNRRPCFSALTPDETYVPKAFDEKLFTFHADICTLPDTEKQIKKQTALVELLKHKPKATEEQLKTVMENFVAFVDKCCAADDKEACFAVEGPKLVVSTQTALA

Human CD3E & CD3G = target: T2, Human CD3E & CD3G (human, UniProt P07766;P09693); assay: ELISA, plate coated with CD3E & CD3G heterodimer protein (100 ng/well), anti-His tag HRP detection (Example 2)
T2 construct: recombinant, tag given as Lama Fc; also called CD3E & CD3G heterodimer protein; CD3E/G antigen

BSA (bovine) = BSA (bovine) (UniProt P02769); assay: ELISA of Example 2, curve labelled BSA in the panel's legend box

| Binder | binding (CD3 on Jurkat cells) | binding (Human CD3E & CD3G) | binding (BSA (bovine)) |
| --- | --- | --- | --- |
| VH_V2_VL_V4 (antibody, V domains shown, also called HV2-LV4) VH: EVQLVESGGGLVQPGRSLRLSCAASGFTFNNYWMSWVRQAPGKGLEWVSAITKTGGSTYYPDSVKGRFTISRDNSKSTLYLQMNSLRAEDTATYYCTREYYYDPYIDYWGQGVLVTVSS VL: QFALTQPRSVSGSLGQSVTLSCTRTTGNIGSNYVNWYQQHEGKAPKTMIYRDDKRPSGVPDRFSGSIDRSSNTASLTISGVQAEDEADYYCQSYSSGINIFGGGTKLTVL | binds | binds | no binding (tested: 10 µg/ml) |
| VH_V1_VL_V4 (antibody, V domains shown, also called HV1-LV4) VH: EVQLVESGGGLVQPGGSLRLSCAASGFTFNNYWMSWVRQAPGKGLEWVSAITKTGGSTYYADSVKGRFTISRDNSKNTLYLQMNSLRAEDTAVYYCTREYYYDPYIDYWGQGTLVTVSS VL: QFALTQPRSVSGSLGQSVTLSCTRTTGNIGSNYVNWYQQHEGKAPKTMIYRDDKRPSGVPDRFSGSIDRSSNTASLTISGVQAEDEADYYCQSYSSGINIFGGGTKLTVL | binds | binds | no binding (tested: 10 µg/ml) |
| VH_V3_VL_V4 (antibody, V domains shown, also called HV3-LV4) VH: EVQLVESGGGLVQPGRSLRLSCAASGFTFNNYWMSWVRQAPGKGLEWVASITKTGGSTYYPDSVKGRFTISRDNAKSTLYLQMNSLRSEDTATYYCTREYYYDPYIDYWGQGVLVTVSS VL: QFALTQPRSVSGSLGQSVTLSCTRTTGNIGSNYVNWYQQHEGKAPKTMIYRDDKRPSGVPDRFSGSIDRSSNTASLTISGVQAEDEADYYCQSYSSGINIFGGGTKLTVL | binds | binds | no binding (tested: 10 µg/ml) |
| VH_V4_VL_V4 (antibody, V domains shown, also called HV4-LV4) VH: EVQLVESGGGLVQPGGSLRLSCAASGFTFNNYWMTWIRQAPGKGLEWVASITKTGGSTYYPDSVKGRFTISRDNSKSTLYLQMNSLRAEDTAVYYCTREYYYDPYIDYWGQGTLVTVSS VL: QFALTQPRSVSGSLGQSVTLSCTRTTGNIGSNYVNWYQQHEGKAPKTMIYRDDKRPSGVPDRFSGSIDRSSNTASLTISGVQAEDEADYYCQSYSSGINIFGGGTKLTVL | binds | binds | no binding (tested: 10 µg/ml) |
| VH_V1_VL_V5 (antibody, V domains shown) VH: EVQLVESGGGLVQPGGSLRLSCAASGFTFNNYWMSWVRQAPGKGLEWVSAITKTGGSTYYADSVKGRFTISRDNSKNTLYLQMNSLRAEDTAVYYCTREYYYDPYIDYWGQGTLVTVSS VL: QSALTQPRSVSGSPGQSVTISCTRTTGNIGSNYVNWYQQHPGKAPKTMIYRDDKRPSGVPDRFSGSIDSSSNTASLTISGLQAEDEADYYCQSYSSGINIFGGGTKLTVL |  | binds | no binding (tested: 10 µg/ml) |

— US20260184786A1 (LINDIS BIOTECH, published 2026)
